The source of these data is article PMC12516554.

Amino acid sequences for entries named in this document (tags omitted).
UniProt Q16665: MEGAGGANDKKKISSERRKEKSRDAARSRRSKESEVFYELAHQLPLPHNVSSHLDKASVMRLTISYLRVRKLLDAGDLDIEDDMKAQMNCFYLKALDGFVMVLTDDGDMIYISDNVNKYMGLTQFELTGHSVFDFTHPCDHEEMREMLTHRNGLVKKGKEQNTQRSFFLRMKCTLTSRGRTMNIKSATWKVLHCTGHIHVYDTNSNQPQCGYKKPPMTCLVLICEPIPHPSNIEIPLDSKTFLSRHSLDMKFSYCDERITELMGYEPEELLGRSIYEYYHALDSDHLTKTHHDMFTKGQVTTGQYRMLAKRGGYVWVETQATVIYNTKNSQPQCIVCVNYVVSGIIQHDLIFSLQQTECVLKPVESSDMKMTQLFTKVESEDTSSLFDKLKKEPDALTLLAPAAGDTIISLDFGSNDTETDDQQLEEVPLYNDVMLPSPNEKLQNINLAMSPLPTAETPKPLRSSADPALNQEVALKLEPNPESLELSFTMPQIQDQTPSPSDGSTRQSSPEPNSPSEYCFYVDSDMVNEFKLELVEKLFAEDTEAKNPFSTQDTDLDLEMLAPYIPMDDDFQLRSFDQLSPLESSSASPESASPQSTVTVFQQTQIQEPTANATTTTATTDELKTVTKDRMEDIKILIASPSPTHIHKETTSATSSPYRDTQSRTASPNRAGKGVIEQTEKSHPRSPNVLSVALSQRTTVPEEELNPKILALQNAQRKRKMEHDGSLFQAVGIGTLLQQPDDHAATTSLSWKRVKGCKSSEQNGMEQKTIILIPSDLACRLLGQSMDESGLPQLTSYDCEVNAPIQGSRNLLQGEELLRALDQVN

This experiment has as its target T1, Zinc finger MYND-type containing 8 (human (endogenous in MCF7)) (UniProt Q9ULU4).
T1 sequence: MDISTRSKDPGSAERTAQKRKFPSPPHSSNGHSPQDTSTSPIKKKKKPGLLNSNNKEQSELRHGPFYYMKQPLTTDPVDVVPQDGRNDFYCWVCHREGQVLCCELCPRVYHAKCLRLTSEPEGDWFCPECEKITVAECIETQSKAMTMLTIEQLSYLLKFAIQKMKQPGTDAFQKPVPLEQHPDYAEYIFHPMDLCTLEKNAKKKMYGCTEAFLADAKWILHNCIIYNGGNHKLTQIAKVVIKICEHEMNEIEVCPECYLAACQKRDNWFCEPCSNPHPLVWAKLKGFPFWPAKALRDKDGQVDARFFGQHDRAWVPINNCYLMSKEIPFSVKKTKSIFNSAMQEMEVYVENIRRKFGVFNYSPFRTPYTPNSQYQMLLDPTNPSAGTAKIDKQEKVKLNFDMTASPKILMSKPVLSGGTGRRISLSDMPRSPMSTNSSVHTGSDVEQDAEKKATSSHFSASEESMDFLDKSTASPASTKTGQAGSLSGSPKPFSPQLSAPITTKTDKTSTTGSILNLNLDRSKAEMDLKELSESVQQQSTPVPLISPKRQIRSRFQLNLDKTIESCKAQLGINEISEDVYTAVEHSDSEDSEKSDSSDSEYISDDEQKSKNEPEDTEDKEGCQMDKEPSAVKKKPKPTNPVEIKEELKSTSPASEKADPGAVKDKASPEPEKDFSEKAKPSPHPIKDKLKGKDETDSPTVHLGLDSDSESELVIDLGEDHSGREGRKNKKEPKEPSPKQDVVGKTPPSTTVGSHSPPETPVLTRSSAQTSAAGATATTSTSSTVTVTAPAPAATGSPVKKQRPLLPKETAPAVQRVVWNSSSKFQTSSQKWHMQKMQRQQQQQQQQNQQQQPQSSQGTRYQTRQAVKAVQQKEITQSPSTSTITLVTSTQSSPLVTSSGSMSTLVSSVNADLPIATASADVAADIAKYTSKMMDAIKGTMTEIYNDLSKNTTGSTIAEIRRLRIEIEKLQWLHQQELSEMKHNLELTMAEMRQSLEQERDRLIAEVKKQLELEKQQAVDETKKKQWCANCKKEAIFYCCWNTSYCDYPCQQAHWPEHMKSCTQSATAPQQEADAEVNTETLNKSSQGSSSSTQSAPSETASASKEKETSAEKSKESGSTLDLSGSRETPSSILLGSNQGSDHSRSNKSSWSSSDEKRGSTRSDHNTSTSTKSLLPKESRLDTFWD
The experiment is described as follows: co-IP; immunoprecipitation with anti-ZMYND8 antibody from RIPA lysates of hypoxia-treated MCF7 cells (precleared; beads washed three times with RIPA buffer); western blot. In general terms: In western blotting, separated proteins are transferred to a membrane and probed.

No constants are given. Whether binding was seen depends on the method and setting. In cells and extracts the contact can be indirect. Some entries that bind do so weakly or less than the wild type.

“hypoxia-inducible factor 1-α (from UniProt Q16665 1-826)”: the binding entry is reported as “binds”.
